In ChEMBL document CHEMBL4028845, “Design, Synthesis, and Properties of a Potent Inhibitor of Pseudomonas aeruginosa Deacetylase LpxC” (J Med Chem, 2017):

Key:
Klebsiella pneumoniae = test: Antibacterial activity against Klebsiella pneumoniae NB29018 after 18 to 24 hrs; assay type: functional
Method in brief: (§1)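 Broth MIC per CLSI guidelines in cation-adjusted Mueller Hinton broth. Compounds were dissolved and serially diluted in DMSO (carbapenems in water) before addition to plates. Incubation was at 37 °C for 18−24 h. MIC is the lowest concentration preventing visible growth. MIC50/MIC90 are the concentrations inhibiting 50% or 90% of isolates tested.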

Escherichia coli = test: Antibacterial activity against Escherichia coli NB27047 after 18 to 24 hrs; assay type: functional; method in brief: as §1

O=C(O)c1cn(C2CC2)c2cc(N3CCNCC3)c(F)cc2c1=O [CIPROFLOXACIN]
MIC (Klebsiella pneumoniae): ≤ 0.03 µg/mL
MIC (Escherichia coli): ≤ 0.03 µg/mL
